Each structure is given as a SMILES string. Several values for one entry are separate records, joined by “and”; a condition that tells them apart may be missing. Equal values may be shown once. The list shows a part of the results. Further columns of the screen follow, without active or inactive calls. Compounds called inactive in the main read-out are mostly missing here. The note in brackets gives the kind of curve behind each potency; many fits are weak.

The experiment can be described thus: qHTS Assay for Lipid Storage Modulators in Drosophila S3 Cells.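 As to cell number change: cells counted by Cell Tracker Red CMTPX staining in the red channel.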 The note with it: BODIPY lipid droplet fluorescence, 18-24 h; for cell number change: measured here: cell count max response, cells fed with added oleic acid. The essentials:
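Drosophila S3 cells got compounds at several concentrations plus oleic acid (400 uM solution). Laser-scanning cytometry with 488 nm excitation read lipid droplets at 500-530 nm and cells at 575-640 nm. Percent activity was relative to 20 uM Triacsin C.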

Setting [1] is: measured here: lipid fluorescence (Fed channel) AC50, cells fed with added oleic acid.
[2] abbreviates: measured here: cell number channel AC50, cells fed with added oleic acid.

As for `COc1ccc(OC)c2[nH]c(C(=O)N3CCC(C(=O)O)CC3)cc12`, the cell number change was 4.84%.

As usually defined, the AC50 is the concentration giving half of the maximal activity seen. Low values mean activity at low concentration, high ones activity only at high concentration. On to `COc1ccc(OC)c(S(=O)(=O)Nc2ccc3c(c2)n(C)c(=O)n3C)c1`, for which the cell number change came to 10.8%. The concentration at half-maximal activity (AC50) under setting [1] is 1.16 µM [rising, single point].

In the case of `Cc1onc(-c2ccccc2)c1C(=O)OCC(=O)N(C)c1c(N)n(Cc2ccccc2)c(=O)[nH]c1=O`, under setting [2], the AC50 was 2.31 µM [rising, single point].

Consider `CC(=O)Nc1cccc(NC(=O)c2ccc(Br)cc2)c1`, for which the cell number change is 51.8%. Moreover, under setting [1], the AC50 is 29.1 µM [rising, single point].

Regarding `COc1ccc(/C=C/C(=O)Nc2nc(C)c(C(=O)N(C)C)s2)cc1`, the cell number change is 33.7%. Also, the AC50 under setting [2] was 29.1 µM [rising, single point]. The AC50 under setting [1] is 23.1 µM [rising, single point].

For `CCCc1c(C(=O)NNc2ccc(C)cc2)cnn1-c1ccccc1`, the cell number change is -10.3%. Besides, the AC50 under setting [2] is 0.103 µM [falling, partial curve, poor fit].

On to `C=CCc1ccccc1OCC(O)CN1CCN(Cc2ccc3c(c2)OCO3)CC1` (stereo unspecified), for which the cell number change came to 125%. For the same compound, the AC50 under setting [2] was 3.26 µM [rising, single point] and 20.6 µM [rising, partial curve]. Also, under setting [1], the AC50 is 5.17 µM [rising, single point] and 18.4 µM [rising, partial curve].

`O=C(COc1ccc(-c2ccccc2)cc1)N/N=C/c1cc(O)ccc1Br`: the cell number change was -18.8%. Besides, the AC50 under setting [1] is 29.1 µM [falling, single point].

Take `CC(=O)NC1(c2ccccc2)CCN(CC(=O)N2CCC(C)CC2)CC1`: the cell number change is 18.1%.

For the compound `O=C(COc1cccnc1[N+](=O)[O-])NCCc1ccc(Cl)cc1Cl`, the cell number change was -23.9%. Also, the AC50 under setting [1] was 16.4 µM [falling, partial curve].

For `Cc1cccn2c(=O)c(/C=N/O)c(N3CCOCC3)nc12`, the AC50 under setting [1] is 6.51 µM [rising, single point].

In the case of `Cc1c(C(=O)NCc2ccc3c(c2)OCO3)oc2ccc(S(=O)(=O)N3CCCCC3)cc12`, the cell number change was found to be 51.3%. The AC50 under setting [2] is 7.31 µM [rising, partial curve]. In addition, the AC50 under setting [1] is 13 µM [rising, partial curve].

For the compound `O=C(Cc1c[nH]c2ccccc12)N[C@@H](Cc1c[nH]c2ccccc12)C(=O)O`, the cell number change was -5.9%. The AC50 under setting [1] was 25.9 µM [rising, partial curve].

`CCCn1nc(NC(=O)CC(C)C)c2cc3ccccc3nc21`: the cell number change stood at 20.6%. Under setting [1], the AC50 was 4.11 µM [falling, single point].

With `COc1ccc(OC)c(/C=C/C(=O)c2ccc3c(c2)OCO3)c1`, the cell number change was -16.3%. Further, the AC50 under setting [1] is 20.6 µM [falling, single point].

Regarding `Cc1ccc(NC2(C(F)(F)F)N=C(c3ccccc3)NC2=O)nc1` (stereo unspecified), the cell number change is -16.6%. Also, under setting [1], the AC50 is 6.51 µM [falling, full curve, poor fit].

Consider `CCc1noc(C)c1C(=O)Nc1cc(S(=O)(=O)N2CCOCC2)ccc1N1CCN(CC)CC1`, for which the cell number change was -8.56%. For the same compound, under setting [2], the AC50 is 0.651 µM [falling, single point]. For the same compound, the AC50 under setting [1] is 6.51 µM [falling, single point].

On to `Cc1onc(-c2c(F)cccc2Cl)c1C(=O)NCC1COc2ccccc2O1` (stereo unspecified), for which the cell number change turned out to be 14.5%.

With `Cc1sc2ncn(CC(=O)N3CCC(C(N)=O)CC3)c(=O)c2c1S(=O)(=O)N1CC(C)CC(C)C1` (stereo unspecified), the cell number change amounted to 18.5%. Besides, the AC50 under setting [1] was 0.58 µM [falling, single point].

For `COc1ccc(Nc2nc3c(c(=O)n(C)c(=O)n3C)n2CCO)cc1`, the cell number change amounted to 16%. The AC50 under setting [1] was 0.651 µM [falling, single point].

Turning to `CCOC(=O)Cn1nc(C)c(NC(=O)COc2ccccc2[N+](=O)[O-])c1C`, the cell number change was 36.8%. For the same compound, under setting [2], the AC50 was 29.1 µM [rising, single point]. For the same compound, the AC50 under setting [1] is 5.8 µM [rising, full curve, poor fit].

Consider `Cc1ccc(NC(=O)CN2C(=O)S/C(=C\c3cccn3-c3cccc(C(=O)O)c3)C2=O)c(C)c1`, for which the cell number change is -17.7%. The concentration at half-maximal activity (AC50) under setting [1] is 32.6 µM [falling, single point].

On to `Cc1nn2c(-c3ccco3)nnc2c2ccccc12`, for which the cell number change was -1.84%. In addition, the AC50 under setting [1] was 11.6 µM [falling, partial curve].

For the compound `CN1CCN(C(=O)c2cccn(Cc3cccc(Cl)c3)c2=O)CC1`, the cell number change is -5.08%.

For `CCC(=O)Nc1cccc(NC(=S)NC(=O)c2cc3ccccc3o2)c1`, the cell number change was -56.7%. Further, under setting [2], the AC50 is 16.4 µM [falling, single point]. In addition, under setting [1], the AC50 was 29.1 µM [falling, single point].

`Cc1ccc(N2C(=O)Nc3cc(Cl)c(Cl)cc3N2O)cc1Cl`: the cell number change was determined as 11.7%. Besides, the concentration at half-maximal activity (AC50) under setting [1] is 0.00461 µM [rising, full curve, poor fit].

In the case of `Cn1c2c(c(=O)[nH]c1=O)C(NC(=O)c1ccco1)(C(F)(F)F)C(=O)N2` (stereo unspecified), the cell number change was -39.3%. Further, the AC50 under setting [2] is 29.1 µM [falling, single point]. Further, the AC50 under setting [1] is 29.1 µM [falling, single point].

For the compound `Cc1cccc(CS(=O)(=O)c2nnc([C@H](Cc3ccccc3)NC(=O)OC(C)(C)C)o2)c1`, the cell number change is -82%. Further, the AC50 under setting [2] is 23.1 µM [falling, partial curve]. Moreover, the concentration at half-maximal activity (AC50) under setting [1] is 16.4 µM [falling, single point].

For the compound `COC(=O)Cn1c(SCc2ccccc2)nc2ccccc21`, the cell number change worked out at 20.3%. For the same compound, the half-maximal activity concentration (AC50) under setting [2] is 0.651 µM [rising, full curve, poor fit]. The AC50 under setting [1] was 2.06 µM [falling, partial curve].

In the case of `CCN(CC)C(=O)Cn1cc(S(=O)(=O)CC(=O)Nc2ccc(OC)c(OC)c2)c2ccccc21`, the cell number change turned out to be 2%.

`CCOC(=O)c1c(NC(=O)CSc2nnc(-c3ccccc3)n2CC)sc(C(C)=O)c1C`: the cell number change was -21.1%. Besides, the AC50 under setting [1] is 0.517 µM [rising, partial curve].

On to `CCOCCc1nnc(NC(=O)CS(=O)(=O)c2ccc(C)cc2)s1`, for which the cell number change is 22.1%. Moreover, the AC50 under setting [1] was 1.16 µM [rising, single point].

`Cc1ccccc1COc1ccc(/C=N/NC(=O)c2nnn(-c3nonc3N)c2CN2CCC(C)CC2)cc1`: the cell number change was determined as 95%. For the same compound, the AC50 under setting [2] is 7.31 µM [rising, full curve]. Further, the AC50 under setting [1] was 6.51 µM [rising, single point].

In the case of `O=C(Nc1ccc2oc(-c3cccnc3)nc2c1)c1ccc([N+](=O)[O-])o1`, the AC50 under setting [1] is 4.11 µM [falling, full curve].

Consider `COc1ccc(-n2ccn(CC(=O)Nc3ccccc3OC)c(=O)c2=O)cc1`, for which the cell number change stood at 11.6%.

Values taken from PubChem BioAssay AID2685 (National Center for Advancing Translational Sciences (NCATS), 2010).
